Experimental data as given in PubChem BioAssay AID328 (DTP/NCI, 2004).
The list is a part of this screen's results and no random one: it gathers tests that were run many times, whatever their T/C, doses with no T/C, and many T/C values between a quarter and a half above the control. Other doses and runs of a compound stand elsewhere. T/C is the treated group as % of the vehicle group. Some doses have a count of surviving animals in place of a T/C: the source holds a T/C of zero for them, seemingly a mark for toxic or unscored doses. Some doses without a T/C left all or most animals alive at the check, yet need not have been tolerated: survival well below the control is almost never listed, so the zero probably covers shortened survival too. Counts of survivors are from the toxicity check (mostly the fifth day) where no day follows; animals may have died later. Schedules are NCI's codes, read here as Q, the interval in days (D) or hours (H), X, the number of doses. Some structures stand for samples that the source files as different forms (salt, stereo form or complex); doses refer to the form tested. For survival time, the PubChem record calls one and a half times the control and up active, and a quarter to a half above the control has no call in these data; cut-offs in other NCI protocols can differ. Some entries hold several experiments; the values are given in rising order.

System: BDF1 mice, P388 leukemia ip, median survival T/C
Test: NCI In Vivo Anticancer Drug Screen. Data for tumor model P388 Leukemia (intraperitoneal) in B6D2F1 (BDF1) mice
Settings: T/C endpoint: median survival time, higher T/C = longer survival
How it was run: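 In tumour-bearing mice, survival after compound treatment is set against the vehicle group and given as a quotient.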

[1] = dose: 25.0 mg/kg/injection, schedule: Q01DX009 (ip), vehicle: saline
[2] = dose: 100.0 mg/kg/injection, schedule: Q01DX009 (ip), vehicle: saline

## N=c1nc2n(cc1F)[C@@H]1O[C@H](CO)[C@@H](O)[C@@H]1O2
dose: 32.0 mg/kg/injection, schedule: Q01DX005 (ip), vehicle: saline
  T/C: 137 % of control

## N#CN1CC(C(=O)N2CCCCC2)C=C2c3cccc4[nH]cc(c34)CC21 (configuration not stated)
[1]
  survivor count: 5 of 6
[2]
  survivor count: 5 of 6

## c1ccc2c(c1)CC1CCCCN1C2 (configuration not stated)
dose: 75.0 mg/kg/injection, schedule: Q01DX009 (ip), vehicle: Klucel (hydroxypropylcellulose) (HPC)
  survivor count: 5 of 6
dose: 75.0 mg/kg/injection, schedule: Q01DX009 (ip), vehicle: saline
  survivor count: 4 of 6
dose: 115.0 mg/kg/injection, schedule: Q01DX009 (ip), vehicle: Klucel (hydroxypropylcellulose) (HPC)
  survivor count: 0 of 6
dose: 115.0 mg/kg/injection, schedule: Q01DX009 (ip), vehicle: saline
  survivor count: 0 of 6
dose: 150.0 mg/kg/injection, schedule: Q04DX003 (ip), vehicle: saline
  survivor count: 0 of 6
dose: 170.0 mg/kg/injection, schedule: Q01DX009 (ip), vehicle: Klucel (hydroxypropylcellulose) (HPC)
  survivor count: 0 of 6
dose: 170.0 mg/kg/injection, schedule: Q01DX009 (ip), vehicle: saline
  survivor count: 0 of 6

## NC(=S)N=Nc1ccc(O)c2c(O)ccc(O)c12
dose: 100.0 mg/kg/injection, schedule: Q01DX009 (ip), vehicle: water
  survivor count: 4 of 8
dose: 200.0 mg/kg/injection, schedule: Q01DX009 (ip), vehicle: water
  survivor count: 0 of 8

## Nc1nc(N)c2nc(Sc3ccc(Cl)cc3)c(-c3ccccc3)nc2n1
dose: 200.0 mg/kg/injection, schedule: Q04DX003 (ip), vehicle: saline with Tween-80
  survivor count: 6 of 6

## COc1cc(-c2ccc(Nc3ccccc3C(=O)O)c(OC)c2)ccc1Nc1ccccc1C(=O)O
dose: 12.5 mg/kg/injection, schedule: Q01DX010 (ip), vehicle: saline
  T/C: 129 % of control
dose: 25.0 mg/kg/injection, schedule: Q01DX010 (ip), vehicle: saline
  T/C: 133 % of control

## O=C(CCCCC(=O)Nc1ccc(C(=O)Nc2cc(C3=NCCN3)cc(C3=NCCN3)c2)cc1)Nc1ccc(C(=O)Nc2cc(C3=NCCN3)cc(C3=NCCN3)c2)cc1
[1]
  T/C: 129 % of control
dose: 50.0 mg/kg/injection, schedule: Q01DX009 (ip), vehicle: saline
  T/C: 125 % of control
dose: 66.0 mg/kg/injection, schedule: Q04DX003 (ip), vehicle: saline
  T/C: 129 % of control
dose: 67.0 mg/kg/injection, schedule: Q01DX009 (ip), vehicle: saline
  T/C: 126 % of control
[2]
  T/C: 133, 138, 145 % of control
dose: 100.0 mg/kg/injection, schedule: Q04DX003 (ip), vehicle: saline
  T/C: 125 and 133 % of control
dose: 150.0 mg/kg/injection, schedule: Q01DX009 (ip), vehicle: saline
  T/C: 130 % of control
dose: 400.0 mg/kg/injection, schedule: Q04DX003 (ip), vehicle: saline
  survivor count: 1 of 6

## O=C(CCN1CC1)OCCOC(=O)CCN1CC1
dose: 3.0 mg/kg/injection, schedule: Q01DX009 (ip), vehicle: saline with Tween-80
  T/C: 141 % of control
dose: 6.0 mg/kg/injection, schedule: Q01DX009 (ip), vehicle: saline with Tween-80
  T/C: 129 % of control
dose: 12.5 mg/kg/injection, schedule: Q01DX009 (ip), vehicle: saline with Tween-80
  survivor count: 6 of 6
dose: 25.0 mg/kg/injection, schedule: Q01DX009 (ip), vehicle: saline with Tween-80
  survivor count: 6 of 6
dose: 50.0 mg/kg/injection, schedule: Q01DX009 (ip), vehicle: saline with Tween-80
  survivor count: 5 of 6
dose: 110.0 mg/kg/injection, schedule: Q04DX003 (ip), vehicle: saline with Tween-80
  survivor count: 3 of 6

## CN(C)CCCNC(=S)S
dose: 100.0 mg/kg/injection, schedule: Q01DX001 (ip), vehicle: saline
  survivor count: 2 of 6
dose: 200.0 mg/kg/injection, schedule: Q01DX001 (ip), vehicle: saline
  survivor count: 1 of 6
dose: 400.0 mg/kg/injection, schedule: Q01DX001 (ip), vehicle: saline
  survivor count: 1 of 6
